These results are taken from PubChem BioAssay AID300 (DTP/NCI, 2004).

Structures are written as SMILES. The list is a part of this screen's results and no random one: it gathers tests that were run many times, whatever their T/C, doses with no T/C, and many T/C values between a quarter and a half above the control. Further doses and runs are listed elsewhere. T/C gives the treated animals as a percentage of the vehicle group. Some entries give survivors of the animals treated and no T/C: the source holds a T/C of zero for them, seemingly a mark for toxic or unscored doses. Some survivor counts are full or nearly so, which does not show that the dose was tolerated: the source hardly ever lists a survival T/C far under the control, and the zero likely stands for such cases as well. Survivors were counted at the toxicity check, usually on the fifth day, unless a day is given; later deaths do not show. Schedule codes are those of the source, read here as Q, the interval in days (D) or hours (H), X, the number of doses. Where survival is the endpoint, this PubChem deposit counts one and a half times the control or more as active, and values a quarter to a half above the control carry no call in these data; other NCI protocols may use other cut-offs. Additions like (4×) give the number of equal values in this list. *1 amine or outer side, *2 acyl side, *3 side chain or, on linkers, in order; H or OH if unused. Where a SMILES comes first, the peptide text is derived from it. Bridges are numbered along the chain shown (N, C = ends). Roman numbers before positions name the chains, in order. [ ]: non-standard residue; d: D form. Actinocin(9to1) = Cc1c2oc3c(C)ccc(C(=O)[*:1])c3nc-2c(C(=O)[*:2])c(N)c1=O; NMeV = CN[CH](C(=O)O)C(C)C; Sar = CNCC(=O)O

The subject of this test is Madison 109 lung carcinoma i.m., mice, median survival. The test can be described thus: NCI In Vivo Anticancer Drug Screen. Data for tumor model Madison 109 Lung Carcinoma (intramuscular) in unknown mice. The settings on record: T/C endpoint: median survival time, higher T/C = longer survival. On the procedure:
The antitumor activity of compounds was measured in mice bearing transplantable tumors. Survival or tumor size were measured and the results are expressed as the measurement made in the treated group (T) divided by the measurement made in the vehicle treated control group (C). The tumor model used in this assay is Madison 109 Lung Carcinoma (intramuscular) in unknown mice

Setting [1] is: dose: 200.0 mg/kg/injection, schedule: Q01DX009 (ip), vehicle: water.
Where [2] appears, read: dose: 10.0 mg/kg/injection, schedule: Q02DX009 (ip), vehicle: water.
[3] abbreviates: dose: 20.0 mg/kg/injection, schedule: Q02DX009 (ip), vehicle: water.
[4] abbreviates: dose: 40.0 mg/kg/injection, schedule: Q02DX009 (ip), vehicle: water.
Where [5] appears, read: dose: 80.0 mg/kg/injection, schedule: Q02DX009 (ip), vehicle: water.
Setting [6] is: dose: 20.0 mg/kg/injection, schedule: Q01DX009 (ip), vehicle: water.
The mark [7] stands for this setting: dose: 160.0 mg/kg/injection, schedule: Q02DX009 (ip), vehicle: water.
The mark [8] stands for this setting: dose: 12.0 mg/kg/injection, schedule: Q01DX009 (ip), vehicle: water.

On to `NC(=O)c1ncn(C2OC(CO)C(O)C2O)n1` (stereo not given), for which, under setting [1], the survivor count is given as 8 of 8.

`O=[N+]([O-])c1cccc([N+](=O)[O-])c1Cl`: the T/C is, setting by setting: under setting [2], 132 % of control; under setting [3], 128 % of control; under setting [4], 129 % of control (2×); under setting [5], 132 % of control.

Consider `COc1cccc2c1C(=O)c1c(O)c3c(c(O)c1C2=O)C[C@@](O)(C(=O)CO)C[C@@H]3OC1CC(N)C(O)C(C)O1` (stereo not given in full), for which the T/C (dose: 1.5 mg/kg/injection, schedule: Q01DX005 (ip), vehicle: water, evaluated on day 5) was 129 % of control and the T/C (dose: 1.5 mg/kg/injection, schedule: Q01DX005 (ip), vehicle: water, evaluated on day 75) is 129 % of control. Also, the survivor count by setting is: (dose: 2.5 mg/kg/injection, schedule: Q01DX005 (ip), vehicle: water) 6 of 6; (dose: 5.0 mg/kg/injection, schedule: Q04DX003 (ip), vehicle: water) 8 of 8.

Consider `CN(C)/N=N/c1nc[nH]c1C(N)=O`, for which the T/C is 132 % of control (dose: 50.0 mg/kg/injection, schedule: Q01DX009 (ip), vehicle: Klucel (hydroxypropylcellulose) (HPC)) and 140 % of control (dose: 100.0 mg/kg/injection, schedule: Q01DX009 (ip), vehicle: Klucel (hydroxypropylcellulose) (HPC)). Further, the survivor count (dose: 400.0 mg/kg/injection, schedule: Q01DX009 (ip), vehicle: Klucel (hydroxypropylcellulose) (HPC)) is on record as 8 of 8.

For `C/C(=N/N=C(N)N)c1ccc(NC(=O)Nc2ccc(/C(C)=N/N=C(N)N)cc2)cc1`, the survivor count is, setting by setting: (dose: 100.0 mg/kg/injection, schedule: Q01DX009 (ip), vehicle: water) 6 of 8; under setting [1], 6 of 8.

For `CN(C)c1nc(N(C)C)nc(N(C)C)n1`, the survivor count is, setting by setting: (dose: 80.0 mg/kg/injection, schedule: Q01DX009 (ip), vehicle: other) 8 of 8; (dose: 160.0 mg/kg/injection, schedule: Q01DX009 (ip), vehicle: other) 0 of 8.

With `C[C@@H]1C[C@@H]([C@H](O)CC2CC(=O)NC(=O)C2)C(=O)[C@@H](C)C1`, the survivor count (dose: 40.0 mg/kg/injection, schedule: Q01DX009 (ip), vehicle: water) is on record as 8 of 8 and the survivor count (dose: 80.0 mg/kg/injection, schedule: Q01DX009 (ip), vehicle: water) was 3 of 8.

For the compound `COC1=C(N)C(=O)c2nc(-c3nc(C(=O)O)c(C)c(-c4ccc(OC)c(OC)c4O)c3N)ccc2C1=O`, the T/C (dose: 40.0 micrograms/kg/injection, schedule: Q01DX009 (ip), vehicle: other) was 133 % of control.

Turning to `O=[N+]([O-])c1ccc(Cl)c([N+](=O)[O-])c1`, the T/C is, setting by setting: under setting [2], 132 % of control; under setting [6], 138 % of control; under setting [3], 138 % of control; under setting [4], 135 % of control; under setting [5], 135 % of control; under setting [7], 129 % of control.

Take `S=P(N1CC1)(N1CC1)N1CC1`: the survivor count runs as follows: under setting [8], 8 of 8; (dose: 24.0 mg/kg/injection, schedule: Q01DX009 (ip), vehicle: water) 8 of 8. Besides, the T/C under setting [6] was 134 % of control.

Consider `Cc1c(N)nc([C@H](CC(N)=O)NC[C@H](N)C(N)=O)nc1C(=O)N[C@H](C(=O)N[C@H](C)[C@@H](O)[C@H](C)C(=O)N[C@H](C(=O)NCCc1nc(-c2nc(C(=O)NCCC[S+](C)C)cs2)cs1)[C@@H](C)O)C(OC1OC(CO)C(O)C(O)C1OC1OC(CO)C(O)C(OC(N)=O)C1O)c1cnc[nH]1` (stereo not given in full), for which, for the setting “dose: 10.0 mg/kg/injection, schedule: Q04DX003 (ip), vehicle: saline”, the T/C was 141 % of control.

For `O=[N+]([O-])c1ccc([N+](=O)[O-])c(Cl)c1`, the T/C under setting [7] is 130 % of control.

`OC(CBr)C(O)C(O)C(O)CBr` (stereo not given): where the note is “dose: 200.0 mg/kg/injection, schedule: Q01DX009 (ip), vehicle: Klucel (hydroxypropylcellulose) (HPC)”, the survivor count is 8 of 8.

Consider `Nc1n[nH]c(N)n1`, for which the T/C (dose: 400.0 mg/kg/injection, schedule: Q01DX009 (ip), vehicle: water) is 131 % of control.

For the compound `Cc1c2oc3c(C)ccc(C(=O)NC4C(=O)NC(C(C)C)C(=O)N5CCCC5C(=O)N(C)CC(=O)N(C)C(C(C)C)C(=O)OC4C)c3nc-2c(C(=O)NC2C(=O)NC(C(C)C)C(=O)N3CCCC3C(=O)N(C)CC(=O)N(C)C(C(C)C)C(=O)OC2C)c(N)c1=O` (stereo not given) (I: TVP[Sar][NMeV] / II: TVP[Sar][NMeV]; ester I:1-I:C, II:1-II:C; linker I:N-II:N via Actinocin(9to1); configuration not given here), the T/C (dose: 0.44 mg/kg/injection, schedule: Q01DX009 (ip), vehicle: water, evaluated on day 5) was 139 % of control; the T/C (dose: 0.44 mg/kg/injection, schedule: Q01DX009 (ip), vehicle: water, evaluated on day 66) is 139 % of control; the T/C (dose: 0.66 mg/kg/injection, schedule: Q01DX009 (ip), vehicle: water, evaluated on day 5) was 127 % of control; the T/C (dose: 0.66 mg/kg/injection, schedule: Q01DX009 (ip), vehicle: water, evaluated on day 66) was 127 % of control; the T/C (dose: 0.96 mg/kg/injection, schedule: Q01DX009 (ip), vehicle: water, evaluated on day 5) was 140 % of control; the T/C (dose: 0.96 mg/kg/injection, schedule: Q01DX009 (ip), vehicle: water, evaluated on day 66) is 140 % of control. The T/C was 134 % of control (dose: 1.26 mg/kg/injection, schedule: Q01DX009 (ip), vehicle: water, evaluated on day 5) and 134 % of control (dose: 1.26 mg/kg/injection, schedule: Q01DX009 (ip), vehicle: water, evaluated on day 66).

As to `COc1cccc2c1C(=O)c1c(O)c3c(c(O)c1C2=O)C[C@@](O)(C(C)=O)C[C@@H]3OC1CC(N)C(O)C(C)O1` (stereo not given in full), the T/C was 135 % of control (dose: 0.25 mg/kg/injection, schedule: Q01DX009 (ip), vehicle: water, evaluated on day 5); 135 % of control (dose: 0.25 mg/kg/injection, schedule: Q01DX009 (ip), vehicle: water, evaluated on day 75); 132 % of control (dose: 0.5 mg/kg/injection, schedule: Q01DX009 (ip), vehicle: water, evaluated on day 5); 132 % of control (dose: 0.5 mg/kg/injection, schedule: Q01DX009 (ip), vehicle: water, evaluated on day 75); 127 % of control (dose: 0.75 mg/kg/injection, schedule: Q04DX003 (ip), vehicle: water). Besides, the survivor count runs as follows: (dose: 1.5 mg/kg/injection, schedule: Q01DX009 (ip), vehicle: water) 6 of 6; (dose: 2.5 mg/kg/injection, schedule: Q01DX009 (ip), vehicle: water) 6 of 6.

With `O=[N+]([O-])c1ccc(Cl)cc1[N+](=O)[O-]`, the T/C is 133 % of control under setting [4] and 138 % of control under setting [7].

`c1ccc([C@H]2CN3CCSC3=N2)cc1`: the survivor count under setting [8] is 8 of 8.

As for `O=C(O)CCCc1ccc(N(CCCl)CCCl)cc1`, the survivor count (dose: 0.75 mg/kg/injection, schedule: Q01DX009 (ip), vehicle: saline) is listed as 8 of 8. For the same compound, the T/C (dose: 3.0 mg/kg/injection, schedule: Q01DX009 (ip), vehicle: saline) is 128 % of control and the T/C (dose: 6.0 mg/kg/injection, schedule: Q01DX009 (ip), vehicle: saline) is 131 % of control.

Regarding `O=C1OC(C(O)CO)C(O)=C1O` (stereo not given), the survivor count (dose: 3200.0 mg/kg/injection, schedule: Q01DX009 (ip), vehicle: other) was 8 of 8.

As for `C[C@]12C=CC(=O)C=C1CC[C@@H]1[C@@H]2C(=O)C[C@@]2(C)[C@H]1CC[C@]2(O)C(=O)CO`, where the note is “dose: 20.0 mg/kg/injection, schedule: Q01DX009 (ip), vehicle: saline”, the T/C is 126 % of control.
